Record: PubChem BioAssay AID504808 (Drosophila RNAi Screening Center, 2011)

Screen: 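Genes whose loss lifts activity of an E2F-responsive reporter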 (primary screen)
Cells: Drosophila S2 cells
Reagents: long dsRNA against Drosophila genes
Measured: 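Dual luciferase plate measurements; E2F-specific signal taken as firefly over Renilla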
Direction: E2F firefly: higher = more E2F reporter activity; Renilla normaliser: higher = more normaliser reporter signal
Active means: 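Called active if the normalised E2F reporter went up by over 50%; the cutoff is arbitrary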
The screen tested about 21,000 reagents; shown is a random part of those that have a named target and a result. Over the whole deposit, 18 (0.084%) are marked active. 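Raw counts without plate normalisation, one of two replicates; the ratio scores behind the calls were not deposited.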 Unmarked entries are inactive. A plus sign joins genes that one reagent is predicted to hit. Not given: the amount of reagent, the time to read-out.

target gene | dsRNA | E2F firefly, rep 1 | Renilla normaliser, rep 1
CG30345 | DRSC05144 | 1.40e5 | 5174
CG30281 | DRSC04528 | 83839 | 3167
CG12481 | DRSC19461 | 2.26e5 | 7973
sac (sterile affecting ciliogenesis) | DRSC12237 | 1.34e5 | 7773
arr (arrow) | DRSC07451 | 1.02e5 | 4212
CG16825 | DRSC02526 | 85747 | 3502
robl22E | DRSC00289 | 1.81e5 | 6287
CG8641 | DRSC11028 | 90025 | 3656
su(sable) (suppressor of sable) | DRSC18839 | 1.14e5 | 5564
nmd (no mitochondrial derivative) | DRSC02856 | 94331 | 4057
Usp20-33 (Ubiquitin specific protease 20/33) | DRSC07196 | 2826 | 170
CG42564 | DRSC12518 | 1.42e5 | 6710
CG9029 | DRSC03129 | 1.44e5 | 4730
SERCA (Sarco/endoplasmic reticulum Ca(2+)-ATPase) | DRSC04600 | 77640 | 3482
CG8072 | DRSC10960 | 78332 | 4235
CG11060 | DRSC06029 | 86353 | 3697
CG34286 | DRSC13372 | 88056 | 2714
CG3280 (retired record) | DRSC10356 | 93751 | 4917
CG30340 | DRSC05167 | 1.30e5 | 5515
CG14634 | DRSC17944 | 39272 | 3207
Setx (Senataxin) | DRSC10859 | 71982 | 2793
Eip63F-1 (Ecdysone-induced protein 63F 1) | DRSC08072 | 1.26e5 | 4256
Eip63F-1 (Ecdysone-induced protein 63F 1) | DRSC08659 | 1.05e5 | 5107
btd (buttonhead) | DRSC18747 | 1.43e5 | 6497
Ugt35C1 (UDP-glycosyltransferase family 35 member C1) | DRSC16080 | 89021 | 5901
Arpc2 (Actin-related protein 2/3 complex, subunit 2) | DRSC02113 | 89748 | 3756
CG11601 | DRSC00318 | 1.61e5 | 5084
CG42540 | DRSC08327 | 59860 | 3180
CG42540 | DRSC08328 | 75157 | 3200
CG42540 | DRSC08593 | 74372 | 3033
Hrd3 (HMG-coA reductase degradation 3) | DRSC14156 | 63864 | 2994
mbc (myoblast city) | DRSC16995 | 1.25e5 | 5720
Mal-B2 (Maltase B2) | DRSC02417 | 51789 | 3643
CG11885 | DRSC00329 | 59470 | 3874
RhoGEF2 (Rho guanine nucleotide exchange factor 2) | DRSC07531 | 63223 | 3185
Cad88C (Cadherin 88C) | DRSC15486 | 1.15e5 | 5296

Limited to “Renilla normaliser, rep 1” (6 entries from above):
CG42540 [DRSC08593]	3033
Hrd3 (HMG-coA reductase degradation 3) [DRSC14156]	2994
mbc (myoblast city) [DRSC16995]	5720
Mal-B2 (Maltase B2) [DRSC02417]	3643
CG11885 [DRSC00329]	3874
RhoGEF2 (Rho guanine nucleotide exchange factor 2) [DRSC07531]	3185

The listing continues.
target gene | dsRNA | E2F firefly, rep 1 | Renilla normaliser, rep 1
tutl (turtle) | DRSC00441 | 1.43e5 | 4981
tutl (turtle) | DRSC00442 | 1.45e5 | 4932
tutl (turtle) | DRSC00443 | 1.27e5 | 4991
CG12259 | DRSC14486 | 95231 | 5179
His-Psi:CR31616 + His-Psi:CR31615 | DRSC03760 | 73812 | 4575
Snr1 (Snf5-related 1) | DRSC12369 | 71365 | 4353
Cp38 (Chorion protein 38) | DRSC18453 | 37531 | 3924
Mal-A7 (Maltase A7) | DRSC06077 | 1.42e5 | 4932
CG18789 | DRSC02696 | 94211 | 3960
CG31041 | DRSC13951 | 87773 | 2617
beat-Ic (beaten path Ic) | DRSC01524 | 1.25e5 | 6239
beat-Ic (beaten path Ic) | DRSC03491 | 1.02e5 | 4614
Cka (Connector of kinase to AP-1) | DRSC03476 | 1.46e5 | 4971
moon (moonshiner) | DRSC19497 | 1.41e5 | 6751
CG15029 (retired record) | DRSC19610 | 1.31e5 | 5839
CG5707 | DRSC08573 | 76432 | 3057
CG42843 (retired record) | DRSC01118 | 1.40e5 | 6125
CG42843 (retired record) | DRSC02231 | 1.52e5 | 5259
CG42843 (retired record) | DRSC02233 | 1.59e5 | 5798
Acox57D-p (acyl-Coenzyme A oxidase at 57D proximal) | DRSC04560 | 83460 | 2923
Kebab (Kinetochore and EB1 associated basic protein) | DRSC00827 | 84093 | 3453
